Assay results reported in patent publication EP0235408B1, “Pharmaceutical composition and treatment” (THE UNIVERSITY OF TORONTO I[…], priority 1986, dated 1987).
Structures can show the parent of a compound that is named as a salt. At least one compound was matched to its structure with a doubt left.

How the values were obtained:
laboratory rats = assay: Effects on sleep and righting time, oral administration (Example 5); format: in vivo
Description: The effects on sleep and- righting time of the oral and in traperitoneal administration of the prior art compound hydroxybutyrate sodium salt (GHB) and 4-acetoxybutanoate (EAB) according to the invention were determined, using groups of labotatory rats.
In a first experiment, GHB was administered at high dosage level (25 mM/Kg or 3 g/kg body weight) orally to three animals. […] The most likely reason is that oral GHB is poorly absorbed.
In a second experiment each of GHB and EAB was given to separate groups of twelve and eleven animals respectively, by oral administration at the same, lower dosage level of 10 mM/kg body weight.

[1] = treatment of narcolepsy, patient; cited from earlier work
rats = assay: Effects on sleep and righting time, intraperitoneal administration (Example 6); conditions: individual animals, 5 mM/kg body weight, asterisk = animal could be placed on its back for the time indicated, DNS = did not sleep, sodium salt

O=C(O)CCCO [GHB, hydroxybutyrate sodium salt, reference compound]
sleep (laboratory rats; first experiment, orally, 25 mM/Kg or 3 g/kg body weight, three animals): None of the animals slept
TIME SLEPT (mins) (laboratory rats; individual animals, oral, 10 mM/kg body weight, asterisk = animal could be placed on its back for the time indicated, DNS = did not sleep, sodium salt): DNS
animals put to sleep (laboratory rats; oral, 10 mM/kg body weight): five out of twelve
animals that could be placed on their backs (laboratory rats; oral, 10 mM/kg body weight): none of them could be placed on their backs
duration of action [1]: 2 to 3 h
TIME SLEPT (mins) (rats): DNS
